Results as given in patent US20220026427A1, “CELL BASED ASSAYS AND KITS FOR ASSESSING SERUM CHOLINERGIC RECEPTOR ACTIVITY” (Centre for Addiction and Mental Health, priority 2017, published 2022).
Counter-ions that a name gives are not always drawn.

Tested on: cognitively intact healthy participants
Conditions: in vivo, iv
Excerpt: Cambridge Neuropsychological Test Automated Battery (CANTAB-AD):
Two main challenges are often encountered with many of the newer neurocognitive tasks. First is the lack of standardization in administering such tasks. Second is the lack of information on their psychometric properties. The Cambridge Neuropsychological Test Automated Battery (CANTAB) system addresses both of these challenges (www.cambridgecognition.com). The design of the CANTAB is based on well-established neurocognitive experimental paradigms. It was designed initially to provide componential analysis of cognitive functions in the elderly and individuals with dementia. The CANTAB Eclipse consists of 22 tasks that assess neurocognitive processes within a wide range of relatively independent cognitive domains, including visual memory, attention, working memory and problem solving. Each of the tasks is graded, allowing the assessment of patients with varying level of impairment. Increasing the difficulty of a task avoids a ceiling effect. Conversely, decreasing the difficulty of a task avoids a floor effect and allows the distinction between specific and generalized deficits (a concern discussed above). The tasks are automated and therefore testing is given in a standardized manner with a standardized feedback about accuracy and speed. […]

With CN1[C@@H]2C[C@@H](OC(=O)[C@H](CO)c3ccccc3)C[C@H]1[C@@H]1O[C@@H]12 [scopolamine, Scopolamine Hydrobromide] the “rti_5cmt difference score (Reaction Time, Five-choice movement time)” value was 132.8 milliseconds and the “rti_5crt difference score (Reaction Time, Five-choice reaction time)” value was 107.7 milliseconds.
